# Test results from paper PMC11954736 (BioImpacts : BI, 2024).
# What was measured:
# Assay in all cases: Cell viability assay
# [1] = test system: MCF7; assay type: cell-based, human; settings: MTT, 48 h exposure; LD50: concentration that causes 50% of cell viability
# [2] = test system: PC12 cells; assay type: cell-based, rat; settings: MTT, 48 h exposure, studied concentrations
# [3] = test system: B16; assay type: cell-based, murine; settings: MTT, 48 h exposure; LD50: concentration that causes 50% of cell viability
compound,measurement,setting,value
COc1cc2c(cc1OC)C(=O)C(CC1CCN(Cc3ccccc3)CC1)C2 (stereo not shown) [Donepezil],MCF7 (LD50 µM),[1],0.06 µM
same,PC12 (LD50 µM),[2],No growth inhibition*
same,PC12 (LD50 µM),[2]; listed as donepezil,no significant effect
same,B16 (LD50 µM),[3],0.36 µM
